Data from PubChem BioAssay AID504834 (National Center for Advancing Translational Sciences (NCATS), 2011).
About 22,000 (6.9%) of roughly 320,000 compounds were called active. The inconclusive results got no clear call from the source; some entries with a clear call stand among them for comparison. Calls follow the shape of the dose curve; as a rule, active = well fitted inhibition curve with a large enough effect; inconclusive = small, poorly fitted or top-dose-only effect, or another doubt; inactive = no such curve, though single readings can be large or run the other way. Potencies of inconclusive entries are doubtful fits and often do not repeat.

experiment: Primary qHTS for delayed death inhibitors of the malarial parasite plastid, 96 hour incubation; settings: P. falciparum luciferase reporter growth; series mostly up to 28.7 µM; activity change, negative = inhibition: at the top concentration
Outline: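 Parasite growth measured via integrated firefly luciferase reporter in P. falciparum. Infected erythrocytes at 2% hematocrit, 0.05% parasitemia final were treated 96 hours at 37 C under 5% CO2, and luminescence was read.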
% is scaled to controls: 0 for no effect and ±100 for the full control effect; potency is read from the fitted curve at half-maximal effect.

SMILES | Potency | activity change, negative = inhibition
Cc1oc2cc3oc(=O)c(CCC(=O)N4C[C@H]5C[C@@H](C4)c4cccc(=O)n4C5)c(C)c3cc2c1C | active: 2.94 µM | 
O=C(NC1CCCCC1)C(c1cccnc1)N(C(=O)c1csnn1)C1CCCC1 (configuration not stated) | inconclusive: 18.5 µM [inhibitor, single point] | 
O=C(c1cc2nc(-c3ccco3)cc(C(F)(F)F)n2n1)N1CCN(c2ccccc2)CC1 | inconclusive: 18.5 µM [inhibitor, single point] | 
CCOC(=O)C1=C(C)OC(N)=C(C#N)C1c1cccc(C)c1 (configuration not stated) | inconclusive: 11.7 µM [inhibitor, partial curve, poor fit] | 
CCC1CCc2sc(C(=O)N(C)CC(=O)Nc3ccc(N4CCOCC4)cc3)cc2C1 (configuration not stated) | inconclusive: 18.5 µM [inhibitor, single point] | 
O=S(=O)(NCc1ccc(F)cc1)c1ccccc1Br |  | inactive: -0.653%
N#CC1=C(N)Oc2n[nH]c(-c3cccnc3)c2C1c1ccc([N+](=O)[O-])o1 (configuration not stated) | inconclusive: 1.47 µM [inhibitor, full curve] | 
COC(=O)CCCC1=CC2=CC(=O)C(C)(OC(=O)c3cccs3)C(=O)C2=CN1CC1CC1 (configuration not stated) | inconclusive: 11.7 µM [inhibitor, single point] | 
COc1ccc(-c2cc(C(F)(F)F)nc(SCCC(=O)N3CCCC3)n2)cc1 | inconclusive: 3.7 µM [inhibitor, full curve, poor fit] | 
COc1ccc(/C(N)=N/OC(=O)c2ccc3c(c2)OCO3)cc1OC | inconclusive: 11.7 µM [inhibitor, partial curve, poor fit] | 
O=C(CCNC(=O)N1CCn2c1nc1ccccc12)NCc1ccccc1Cl |  | inactive: -19.7%
CC(c1nc2ccccc2n1Cc1ccccc1)N1CCCCC1 (configuration not stated) | inconclusive: 7.38 µM [inhibitor, partial curve, poor fit] | 
COc1ccccc1NC(=O)c1ccc(Cl)c(S(=O)(=O)NCc2ccco2)c1 | inconclusive: 11.7 µM [inhibitor, partial curve, poor fit] | 
COc1ccc(C(=O)N2CCN(Cc3nc(CC4CC4)no3)CC2)cc1 | inconclusive: 1.31 µM [inhibitor, partial curve, poor fit] | 
O=C1c2ccccc2NC(c2cnc3ccccc3n2)N1O (configuration not stated) |  | inactive: 11.7%
CC12CC3CC(C)(C1)CC(C(=O)NC(=S)N1CCCCC1)(C3)C2 | inconclusive: 13.1 µM [inhibitor, partial curve, poor fit] | 
CCC(C)Sc1nc(O)cc(=O)[nH]1 (configuration not stated) | inconclusive: 18.5 µM [inhibitor, single point] | 
COc1nc(C#N)c(N2CCOCC2)o1 | inconclusive: 18.5 µM [inhibitor, single point] | 
CC(C)Sc1nnc(SCC(=O)NCCCN2CCCC2=O)s1 | inconclusive: 10.4 µM [inhibitor, partial curve] | 
CCN(CC)c1ccc(-n2c(O)c(C=C3N=c4ccccc4=N3)sc2=S)cc1 |  | inactive: -18.3%
COc1ccc2c(C)c(CC(=O)N3CCN(C(=O)C4COc5ccccc5O4)CC3)c(=O)oc2c1C (configuration not stated) | inconclusive: 4.15 µM [inhibitor, partial curve, poor fit] | 

SMILES | Potency | activity change, negative = inhibition
CC(C)C(=O)N(Nc1nc2ccccc2s1)C(=O)C(C)C |  | inactive: -27%
COc1ccccc1OCC(=O)NNC(=O)c1ccc2c(=O)n3c(nc2c1)CCC3 |  | inactive: 9.89%
Cc1ccccc1N1C(=O)CC(Nc2ccc3c(c2)OCO3)C1=O (configuration not stated) |  | inactive: 11.9%
Cc1cccc(N2CCN(C(=O)Cn3nc(C)n4cccc4c3=O)CC2C)c1 (configuration not stated) |  | inactive: 42.7%
O=C(N/N=C1\CC2CC=CC12)c1ccccc1Cl (configuration not stated) |  | inactive: 13.9%
Cc1onc(C(=O)Nc2ccc(OC(F)(F)F)cc2)c1[N+](=O)[O-] | inconclusive: 18.5 µM [inhibitor, single point] | 
Cc1c(/C=N\NC(=O)C2COc3ccccc3O2)c2ccccc2n1C (configuration not stated) | inconclusive: 18.5 µM [inhibitor, single point] | 
CCOC(=O)C1CCCN(C(=O)c2ccc(-c3ccc([N+](=O)[O-])cc3)o2)C1 (configuration not stated) |  | inactive: 2.28%
Cc1ccc(C)c(N2CCN(C(=O)C34CC5CC(C3)CC(n3nnc(C)n3)(C5)C4)CC2)c1 | inconclusive: 11.7 µM [inhibitor, single point] | 
CCOC(=O)c1cc2c(nc1N)CC(C)(C)OC2 | inconclusive: 18.5 µM [inhibitor, single point] | 
O=C(CC1CCCCC1)NCc1cn2ccsc2n1 | inconclusive: 18.5 µM [inhibitor, single point] | 
O=C1CC(c2ccccc2)Sc2nc3ccccc3n21 (configuration not stated) |  | inactive: 27.8%
Cc1ccc(C2=NS(=O)(=O)N(C)C(C(=O)N(C)C3CCCCC3)=C2)cc1 | inconclusive: 18.5 µM [inhibitor, partial curve, poor fit] | 
O=C(NCc1ccccc1)N1CCC(n2cnc3cc(F)ccc32)CC1 |  | inactive: -19.2% [at 5.75 µM]
CC1CCCC(C)N1C(=O)COC(=O)C12CC3CC(CC(Cl)(C3)C1)C2 (configuration not stated) | inconclusive: 9.28 µM [inhibitor, partial curve, poor fit] | 
COc1ccc(Cl)cc1C(=O)CSc1nnnn1C |  | inactive: 33.4%
CC1CN(c2ccc(S(=O)(=O)N3CCCC3)cn2)CC(C)O1 (configuration not stated) |  | inactive: 8.03%
C/C1=C2/[N-]C(C(CC(N)=O)[C@@]2(C)CCC(=O)NCC(C)OP(=O)([O-])O[C@H]2[C@@H](O)[C@@H](n3cnc4cc(C)c(C)cc43)O[C@@H]2CO)[C@]2(C)N=C(/C(C)=C3N=C(/C=C4N=C1C(CCC(N)=O)C\4(C)C)[C@@H](CCC(N)=O)[C@]\3(C)CC(N)=O)[C@@H](CCC(N)=O)[C@]2(C)CC(N)=O.CC(=O)O.[Co] (some centres not stated) | active: 0.675 µM | 
O=c1cc(N2CCN(c3ccccc3)CC2)[nH]c(=O)n1Cc1ccc(F)cc1 | inconclusive: 18.5 µM [inhibitor, single point] | 
COc1cc(C(=O)NCC2CCCCC2)ccc1OCc1c(C)noc1C | inconclusive: 4.65 µM [inhibitor, partial curve, poor fit] | 
CCN(CC)S(=O)(=O)c1ccc(N2CCCC2)c(NS(=O)(=O)c2ccc(F)cc2)c1 | inconclusive: 8.28 µM [inhibitor, partial curve, poor fit] | 

Part of the list above in another layout.

| SMILES | Potency | activity change, negative = inhibition |
| --- | --- | --- |
| COc1ccc(Cl)cc1C(=O)CSc1nnnn1C |  | inactive: 33.4% |
| CC1CN(c2ccc(S(=O)(=O)N3CCCC3)cn2)CC(C)O1 (configuration not stated) |  | inactive: 8.03% |
